Only a part is listed here, and it is no random draw. For part of these data: At the low end of the ranking, values are background and their order means little. The list shows a part of the results. For part of these data: The exact form of the protein is not confirmed.
Assays:
Experiment in all cases: DAPPL (digital affinity profiling via proximity ligation, sequencing)
Conditions in all cases: 10 mM Tris-HCl pH 7.5, 50 mM NaCl, 1 mM DTT, 4% glycerol, room temperature, 30 min; GST-TFs on glutathione beads, 16-mer random dsDNA library, 0.1% …; high values mean tight binding; double strand, one strand shown; scale: fold enrichment (6-mer frequency, TF over GST control)
ERG = biological target: T1, ERG (UniProt P11308)
T1 sequence: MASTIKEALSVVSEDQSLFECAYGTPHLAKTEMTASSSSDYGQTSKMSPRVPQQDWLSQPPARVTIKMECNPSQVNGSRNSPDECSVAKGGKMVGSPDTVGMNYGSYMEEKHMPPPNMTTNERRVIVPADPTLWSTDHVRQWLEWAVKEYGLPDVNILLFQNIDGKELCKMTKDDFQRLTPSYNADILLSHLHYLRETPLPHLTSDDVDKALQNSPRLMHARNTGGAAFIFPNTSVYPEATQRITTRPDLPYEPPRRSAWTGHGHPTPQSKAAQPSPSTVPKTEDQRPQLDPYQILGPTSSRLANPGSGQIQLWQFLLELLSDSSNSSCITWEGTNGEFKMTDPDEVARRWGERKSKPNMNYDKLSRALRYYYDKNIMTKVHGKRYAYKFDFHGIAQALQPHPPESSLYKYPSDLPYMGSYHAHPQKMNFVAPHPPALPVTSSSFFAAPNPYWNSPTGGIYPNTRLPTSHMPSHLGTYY

The chains behind the UniProt entries cited, without tags or fusion partners. Where a name states a change or a piece, a line headed by the entry shows the natural chain unless it says otherwise.
UniProt P32519: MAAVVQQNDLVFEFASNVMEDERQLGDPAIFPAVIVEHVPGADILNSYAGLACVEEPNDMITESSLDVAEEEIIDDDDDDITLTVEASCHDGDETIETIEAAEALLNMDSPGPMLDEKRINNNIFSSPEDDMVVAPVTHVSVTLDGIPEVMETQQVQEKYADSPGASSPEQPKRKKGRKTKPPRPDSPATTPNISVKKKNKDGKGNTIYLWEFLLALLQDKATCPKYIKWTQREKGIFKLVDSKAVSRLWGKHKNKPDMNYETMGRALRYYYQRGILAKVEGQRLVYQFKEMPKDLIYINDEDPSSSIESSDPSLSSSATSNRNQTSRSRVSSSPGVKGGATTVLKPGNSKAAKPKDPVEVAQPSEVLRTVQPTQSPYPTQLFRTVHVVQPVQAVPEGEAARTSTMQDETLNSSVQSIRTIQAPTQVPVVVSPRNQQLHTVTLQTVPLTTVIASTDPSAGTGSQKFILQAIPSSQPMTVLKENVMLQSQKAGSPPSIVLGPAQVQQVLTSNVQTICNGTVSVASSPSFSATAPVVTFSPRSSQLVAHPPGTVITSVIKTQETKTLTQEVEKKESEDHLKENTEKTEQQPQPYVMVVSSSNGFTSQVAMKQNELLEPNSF
UniProt P50549: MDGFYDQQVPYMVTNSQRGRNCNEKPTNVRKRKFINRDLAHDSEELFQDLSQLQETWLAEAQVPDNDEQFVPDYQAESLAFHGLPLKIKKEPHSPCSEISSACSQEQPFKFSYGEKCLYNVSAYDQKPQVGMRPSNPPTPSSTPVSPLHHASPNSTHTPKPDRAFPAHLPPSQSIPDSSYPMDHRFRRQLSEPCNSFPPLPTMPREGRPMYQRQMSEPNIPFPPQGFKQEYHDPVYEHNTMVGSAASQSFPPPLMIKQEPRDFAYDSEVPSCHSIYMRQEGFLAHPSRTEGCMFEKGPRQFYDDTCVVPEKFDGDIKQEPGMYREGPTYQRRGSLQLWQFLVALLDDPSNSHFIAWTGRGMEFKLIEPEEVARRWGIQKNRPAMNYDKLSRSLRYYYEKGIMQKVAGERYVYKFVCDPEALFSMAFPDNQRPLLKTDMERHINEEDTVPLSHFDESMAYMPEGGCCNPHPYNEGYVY

ELF1 = ELF1 (UniProt P32519)
ELK4 = biological target: T2, ELK4 (UniProt P28324-2)
T2 sequence: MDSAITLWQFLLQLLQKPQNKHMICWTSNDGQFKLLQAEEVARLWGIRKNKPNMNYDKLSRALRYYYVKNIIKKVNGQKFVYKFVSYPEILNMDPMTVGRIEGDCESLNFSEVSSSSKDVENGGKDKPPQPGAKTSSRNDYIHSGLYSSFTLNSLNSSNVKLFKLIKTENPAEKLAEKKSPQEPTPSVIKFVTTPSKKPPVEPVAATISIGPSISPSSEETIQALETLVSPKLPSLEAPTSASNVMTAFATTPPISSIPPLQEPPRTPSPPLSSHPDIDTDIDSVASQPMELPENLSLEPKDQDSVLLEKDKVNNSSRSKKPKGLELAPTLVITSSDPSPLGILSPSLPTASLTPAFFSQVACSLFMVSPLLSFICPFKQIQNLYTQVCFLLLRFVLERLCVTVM

ETV4 = biological target: T3, ETV4 (UniProt P43268)
T3 sequence: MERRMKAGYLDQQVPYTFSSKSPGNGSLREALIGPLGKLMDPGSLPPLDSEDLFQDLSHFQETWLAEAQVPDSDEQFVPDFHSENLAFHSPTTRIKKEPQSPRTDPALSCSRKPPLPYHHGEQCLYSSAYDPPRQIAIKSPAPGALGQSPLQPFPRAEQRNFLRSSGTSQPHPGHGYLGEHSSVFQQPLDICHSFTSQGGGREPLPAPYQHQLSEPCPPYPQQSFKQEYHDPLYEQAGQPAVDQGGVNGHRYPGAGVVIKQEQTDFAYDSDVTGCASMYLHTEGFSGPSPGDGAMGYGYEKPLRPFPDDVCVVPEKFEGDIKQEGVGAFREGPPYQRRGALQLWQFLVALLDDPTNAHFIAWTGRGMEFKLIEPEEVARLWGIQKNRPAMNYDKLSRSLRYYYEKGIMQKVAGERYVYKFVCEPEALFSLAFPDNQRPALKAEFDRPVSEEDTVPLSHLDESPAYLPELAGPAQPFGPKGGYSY

ETV1 = ETV1 (UniProt P50549)
ERF = biological target: T4, ERF (UniProt P50548)
T4 sequence: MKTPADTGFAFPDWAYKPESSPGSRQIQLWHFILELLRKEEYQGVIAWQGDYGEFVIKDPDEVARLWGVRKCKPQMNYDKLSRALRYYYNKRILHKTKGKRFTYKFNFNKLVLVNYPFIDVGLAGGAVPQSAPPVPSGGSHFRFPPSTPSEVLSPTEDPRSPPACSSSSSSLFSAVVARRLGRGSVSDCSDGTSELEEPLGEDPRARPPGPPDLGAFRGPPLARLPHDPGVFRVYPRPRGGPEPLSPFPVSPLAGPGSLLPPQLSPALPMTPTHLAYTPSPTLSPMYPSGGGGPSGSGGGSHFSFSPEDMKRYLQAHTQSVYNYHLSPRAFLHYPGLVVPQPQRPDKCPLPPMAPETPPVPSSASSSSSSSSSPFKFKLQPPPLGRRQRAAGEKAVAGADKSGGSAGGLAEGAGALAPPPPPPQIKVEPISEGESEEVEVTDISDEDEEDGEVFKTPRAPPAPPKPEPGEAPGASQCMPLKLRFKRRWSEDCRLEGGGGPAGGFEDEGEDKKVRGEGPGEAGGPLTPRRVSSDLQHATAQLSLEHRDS

Sequence | binding signal (ERG) | binding signal (ELF1) | binding signal (ELK4) | binding signal (ETV4) | binding signal (ETV1) | binding signal (ERF)
GGCGGA | 0.433 | 0.35 | 0.343 | 0.39 | 0.395 | 0.335
AGTAGT | 0.911 | 0.918 | 0.87 | 0.908 | 0.913 | 0.917
CCGAGT | 0.966 | 0.943 | 0.976 | 0.891 | 0.863 | 0.955
TTGGAG | 0.468 | 0.53 | 0.515 | 0.499 | 0.474 | 0.486
CACCGT | 0.645 | 0.637 | 0.688 | 0.658 | 0.616 | 0.747
ACCCAG | 0.749 | 0.708 | 0.694 | 0.72 | 0.655 | 0.756
GGTGCC | 0.685 | 0.758 | 0.761 | 0.706 | 0.676 | 0.691
GATCGT | 0.438 | 0.442 | 0.423 | 0.427 | 0.467 | 0.434
GCATCA | 0.744 | 0.782 | 0.778 | 0.761 | 0.74 | 0.762
GCCGTA | 0.837 | 0.871 | 0.8 | 0.807 | 0.838 | 0.805
GCCAAG | 0.819 | 0.881 | 0.963 | 0.876 | 0.767 | 0.946
GGAAAG | 0.984 | 0.904 | 0.834 | 0.897 | 0.935 | 0.913
GCTGTG | 0.726 | 0.64 | 0.729 | 0.63 | 0.674 | 0.71
TAGGAC | 0.844 | 0.86 | 0.828 | 0.908 | 0.799 | 0.754
CAGTCT | 0.752 | 0.791 | 0.83 | 0.728 | 0.725 | 0.758
GGTGAT | 0.785 | 0.789 | 0.842 | 0.794 | 0.797 | 0.893
AGGAGA | 0.217 | 0.214 | 0.19 | 0.198 | 0.203 | 0.232
GAGTGC | 0.667 | 0.678 | 0.75 | 0.7 | 0.723 | 0.783
AGGTTG | 0.716 | 0.754 | 0.812 | 0.7 | 0.748 | 0.671
ACCGCG | 0.893 | 0.874 | 0.918 | 0.867 | 0.881 | 0.914
CGTAAG | 0.764 | 0.745 | 0.793 | 0.733 | 0.789 | 0.749
CAGAGT | 0.632 | 0.635 | 0.675 | 0.65 | 0.675 | 0.587
GGCGAC | 0.828 | 0.848 | 0.714 | 0.83 | 0.791 | 0.834
CGCTGA | 0.824 | 0.896 | 0.999 | 0.834 | 0.859 | 0.824

Sequence | binding signal (ERG) | binding signal (ELF1) | binding signal (ELK4) | binding signal (ETV4) | binding signal (ETV1) | binding signal (ERF)
AGGTCA | 0.709 | 0.709 | 0.809 | 0.724 | 0.735 | 0.77
GAGTAC | 0.535 | 0.506 | 0.58 | 0.488 | 0.552 | 0.49
GCCGGG | 0.398 | 0.376 | 0.402 | 0.397 | 0.42 | 0.377
GAGCAC | 0.737 | 0.718 | 0.758 | 0.739 | 0.693 | 0.789
GTGATC | 0.78 | 0.745 | 0.814 | 0.763 | 0.837 | 0.802
ACAACG | 0.939 | 0.962 | 0.964 | 1 | 0.952 | 0.997
GGAGGG | 0.315 | 0.318 | 0.357 | 0.31 | 0.337 | 0.316
GGTTGA | 0.741 | 0.786 | 0.901 | 0.811 | 0.768 | 0.751
GATCAG | 0.67 | 0.749 | 0.749 | 0.734 | 0.759 | 0.754
TGTCGT | 0.839 | 0.783 | 0.94 | 0.834 | 0.887 | 0.896
CGGTCC | 0.956 | 0.935 | 1.08 | 0.969 | 0.927 | 0.971
GAGCAA | 0.774 | 0.755 | 0.736 | 0.744 | 0.749 | 0.813
CGGTAA | 0.984 | 0.979 | 0.904 | 0.932 | 0.948 | 0.882
GGGTTG | 0.788 | 0.828 | 0.954 | 0.941 | 0.828 | 0.838
CGTGCC | 0.971 | 0.812 | 0.971 | 0.834 | 0.846 | 0.866
AGGCGT | 0.538 | 0.499 | 0.475 | 0.47 | 0.525 | 0.456
GACGCA | 0.538 | 0.548 | 0.629 | 0.537 | 0.527 | 0.543
CAGAGC | 0.785 | 0.857 | 0.902 | 0.851 | 0.846 | 0.874
CGGGGA | 0.437 | 0.44 | 0.416 | 0.457 | 0.441 | 0.435
GCAGTG | 0.575 | 0.57 | 0.619 | 0.575 | 0.589 | 0.587
TGTAGG | 0.818 | 0.798 | 0.779 | 0.799 | 0.721 | 0.848
CCGGGA | 0.499 | 0.472 | 0.46 | 0.491 | 0.52 | 0.48
AGTGAT | 0.861 | 0.838 | 0.898 | 0.822 | 0.87 | 0.877

Retrieved one by one from the list above:
Sequence | binding signal (ERG) | binding signal (ELF1) | binding signal (ELK4) | binding signal (ETV4) | binding signal (ETV1) | binding signal (ERF)
GCCGTA | 0.837 | 0.871 | 0.8 | 0.807 | 0.838 | 0.805
CAGAGC | 0.785 | 0.857 | 0.902 | 0.851 | 0.846 | 0.874
CGTAAG | 0.764 | 0.745 | 0.793 | 0.733 | 0.789 | 0.749
CGGTCC | 0.956 | 0.935 | 1.08 | 0.969 | 0.927 | 0.971
